Experimental data published in paper PMC6123687.
Results are given in words; binding and its absence hold for the method and conditions named. For some assays here: In cells and extracts the contact can be indirect. Some results given as binding are weak or reduced against the parent protein; the word gives no strength. Where a sequence is shown, tags or fusion partners need not be part of it.

Chains of the proteins cited; added tags and fusions are not shown.
UniProt O81445: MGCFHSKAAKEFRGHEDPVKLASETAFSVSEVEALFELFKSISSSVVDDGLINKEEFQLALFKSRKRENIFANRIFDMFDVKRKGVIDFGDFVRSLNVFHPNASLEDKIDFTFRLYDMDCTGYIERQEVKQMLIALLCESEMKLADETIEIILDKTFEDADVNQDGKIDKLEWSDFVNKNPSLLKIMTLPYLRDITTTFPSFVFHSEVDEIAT

What was measured:
[1] = target: Arabidopsis CBL1 (AtCBL1) as two-hybrid fusion of Figure 4B (Arabidopsis) (UniProt O81445); experiment: two-hybrid; Gal4p-based system, yeast strain Y190; growth on SC-His-Leu-Trp with 25 mM 3-amino-1,2,4-aminotriazole (HIS3) and beta-galactosidase filter-lift assay
[2] = target: Arabidopsis bZIP63 as bZIP63-YFP^N and bZIP63-YFP^C (Arabidopsis) (UniProt B9DGI8); experiment: split reporter; BiFC (split YFP) in onion epidermal cells, particle bombardment, 18 h at 23°C, confocal microscopy

| binding [1] | binding [2] | Binder |
| --- | --- | --- |
| binds |  | AD⋅CIPK12 (pGAD⋅CIPK12), Arabidopsis CIPK12 in the Gal4 activation domain vector (protein, UniProt Q9SN43 1-489) MAEKITRETSLPKERSSPQALILGRYEMGKLLGHGTFAKVYLARNVKTNESVAIKVIDKEKVLKGGLIAHIKREISILRRVRHPNIVQLFEVMATKAKIYFVMEYVRGGELFNKVAKGRLKEEVARKYFQQLISAVTFCHARGVYHRDLKPENLLLDENGNLKVSDFGLSAVSDQIRQDGLFHTFCGTPAYVAPEVLARKGYDAAKVDIWSCGVILFVLMAGYLPFHDRNVMAMYKKIYRGEFRCPRWFSTELTRLLSKLLETNPEKRFTFPEIMENSWFKKGFKHIKFYVEDDKLCNVVDDDELESDSVESDRDSAASESEIEYLEPRRRVGGLPRPASLNAFDIISFSQGFDLSGLFDDDGEGSRFVSGAPVSKIISKLEEIAKVVSFTVRKKDCRVSLEGSRQGVKGPLTIAAEIFELTPSLVVVEVKKKGGDKTEYEDFCNNELKPKLQNLTADDVVAEPVAVSAVDETAIPNSPTISFLPSDTE |
| binds |  | AD⋅CIPK17 (pGAD⋅CIPK17), Arabidopsis CIPK17 in the Gal4 activation domain vector (protein, UniProt Q94C40 1-432) MVIKGMRVGKYELGRTLGEGNSAKVKFAIDTLTGESFAIKIIEKSCITRLNVSFQIKREIRTLKVLKHPNIVRLHEVLASKTKIYMVLECVTGGDLFDRIVSKGKLSETQGRKMFQQLIDGVSYCHNKGVFHRDLKLENVLLDAKGHIKITDFGLSALSQHYREDGLLHTTCGSPNYVAPEVLANEGYDGAASDIWSCGVILYVILTGCLPFDDANLAVICRKIFKGDPPIPRWISLGAKTMIKRMLDPNPVTRVTIAGIKAHDWFKHDYTPSNYDDDDDVYLIQEDVFMMKEYEEEKSPDSPTIINAFQLIGMSSFLDLSGFFETEKLSERQIRFTSNSLAKDLLENIETIFTEMGFCLQKKHAKLKAIKEESTQKRQCGLSVTAEVFEISPSLNVVELRKSHGDSSLYKQLYERLLNELGSSSQVQELLA |
| binds |  | AD⋅CIPK18 (pGAD⋅CIPK18), Arabidopsis CIPK18 in the Gal4 activation domain vector (protein, UniProt Q9LP51 1-520) MAQALAQPPLVVTTVVPDPPPPPPPPHPKPYALRYMADLLGRIGIMDTDKDGNISPQSPRSPRSPRNNILMGKYELGKLLGHGTFAKVYLAQNIKSGDKVAIKVIDKEKIMKSGLVAHIKREISILRRVRHPYIVHLFEVMATKSKIYFVMEYVGGGELFNTVAKGRLPEETARRYFQQLISSVSFCHGRGVYHRDLKPENLLLDNKGNLKVSDFGLSAVAEQLRQDGLCHTFCGTPAYIAPEVLTRKGYDAAKADVWSCGVILFVLMAGHIPFYDKNIMVMYKKIYKGEFRCPRWFSSDLVRLLTRLLDTNPDTRITIPEIMKNRWFKKGFKHVKFYIEDDKLCREDEDEEEEASSSGRSSTVSESDAEFDVKRMGIGSMPRPSSLNAFDIISFSSGFDLSGLFEEEGGEGTRFVSGAPVSKIISKLEEIAKIVSFTVRKKEWSLRLEGCREGAKGPLTIAAEIFELTPSLVVVEVKKKGGDREEYEEFCNKELRPELEKLIHEEVVVEEALYLPSDTE |
| binds |  | AD⋅CIPK23 (pGAD⋅CIPK23), Arabidopsis CIPK23 in the Gal4 activation domain vector (protein, UniProt Q93VD3 1-482) MASRTTPSRSTPSRSTPSGSSSGGRTRVGKYELGRTLGEGTFAKVKFARNVENGDNVAIKVIDKEKVLKNKMIAQIKREISTMKLIKHPNVIRMFEVMASKTKIYFVLEFVTGGELFDKISSNGRLKEDEARKYFQQLINAVDYCHSRGVYHRDLKPENLLLDANGALKVSDFGLSALPQQVREDGLLHTTCGTPNYVAPEVINNKGYDGAKADLWSCGVILFVLMAGYLPFEDSNLTSLYKKIFKAEFTCPPWFSASAKKLIKRILDPNPATRITFAEVIENEWFKKGYKAPKFENADVSLDDVDAIFDDSGESKNLVVERREEGLKTPVTMNAFELISTSQGLNLGSLFEKQMGLVKRKTRFTSKSSANEIVTKIEAAAAPMGFDVKTNNYKMKLTGEKSGRKGQLAVATEVFQVAPSLYMVEMRKSGGDTLEFHKFYKNLTTGLKDIVWKTIDEEKEEGTDGGGTNGAMANRTIAKQST |
| binds |  | AD⋅CIPK24 (pGAD⋅CIPK24), Arabidopsis CIPK24 in the Gal4 activation domain vector (protein, UniProt Q9LDI3 1-446) MTKKMRRVGKYEVGRTIGEGTFAKVKFARNTDTGDNVAIKIMAKSTILKNRMVDQIKREISIMKIVRHPNIVRLYEVLASPSKIYIVLEFVTGGELFDRIVHKGRLEESESRKYFQQLVDAVAHCHCKGVYHRDLKPENLLLDTNGNLKVSDFGLSALPQEGVELLRTTCGTPNYVAPEVLSGQGYDGSAADIWSCGVILFVILAGYLPFSETDLPGLYRKINAAEFSCPPWFSAEVKFLIHRILDPNPKTRIQIQGIKKDPWFRLNYVPIRAREEEEVNLDDIRAVFDGIEGSYVAENVERNDEGPLMMNAFEMITLSQGLNLSALFDRRQDFVKRQTRFVSRREPSEIIANIEAVANSMGFKSHTRNFKTRLEGLSSIKAGQLAVVIEIYEVAPSLFMVDVRKAAGETLEYHKFYKKLCSKLENIIWRATEGIPKSEILRTITF |
|  | binds | Arabidopsis bZIP63 as bZIP63-YFP^N and bZIP63-YFP^C (protein, UniProt B9DGI8 1-314) MEKVFSDEEISGNHHWSVNGMTSLNRSASEWAFNRFIQESSAAADDGESTTACGVSVSSPPNVPVDSEEYRAFLKSKLNLACAAVAMKRGTFIKPQDTSGRSDNGGANESEQASLASSKATPMMSSAITSGSELSGDEEEADGETNMNPTNVKRVKRMLSNRESARRSRRRKQAHLSELETQVSQLRVENSKLMKGLTDVTQTFNDASVENRVLKANIETLRAKVKMAEETVKRLTGFNPMFHNMPQIVSTVSLPSETSNSPDTTSSQVTTPEIISSGNKGKALIGCKMNRTASMRRVESLEHLQKRIRSVGDQ |

Further lines, the binder ahead of its results:

| Binder | binding [1] | binding [2] |
| --- | --- | --- |
| AD⋅CIPK1 (pGAD⋅AtCIPK1), Arabidopsis CBL-interacting protein kinase 1 in the Gal4 activation domain vector (protein, UniProt Q8RWC9 1-444) MVRRQEEEKKAEKGMRLGKYELGRTLGEGNFGKVKFAKDTVSGHSFAVKIIDKSRIADLNFSLQIKREIRTLKMLKHPHIVRLHEVLASKTKINMVMELVTGGELFDRIVSNGKLTETDGRKMFQQLIDGISYCHSKGVFHRDLKLENVLLDAKGHIKITDFGLSALPQHFRDDGLLHTTCGSPNYVAPEVLANRGYDGAASDIWSCGVILYVILTGCLPFDDRNLAVLYQKICKGDPPIPRWLSPGARTMIKRMLDPNPVTRITVVGIKASEWFKLEYIPSIPDDDDEEEVDTDDDAFSIQELGSEEGKGSDSPTIINAFQLIGMSSFLDLSGFFEQENVSERRIRFTSNSSAKDLLEKIETAVTEMGFSVQKKHAKLRVKQEERNQKGQVGLSVTAEVFEIKPSLNVVELRKSYGDSCLYRQLYERLLKDVGTSSPEQEIVT | binds |  |
| AD⋅CIPK7 (pGAD⋅CIPK7), Arabidopsis CIPK7 in the Gal4 activation domain vector (protein, UniProt Q9XIW0 1-429) MESLPQPQNQSSPATTPAKILLGKYELGRRLGSGSFAKVHLARSIESDELVAVKIIEKKKTIESGMEPRIIREIDAMRRLRHHPNILKIHEVMATKSKIYLVMELASGGELFSKVLRRGRLPESTARRYFQQLASALRFSHQDGVAHRDVKPQNLLLDEQGNLKVSDFGLSALPEHLQNGLLHTACGTPAYTAPEVISRRGYDGAKADAWSCGVILFVLLVGDVPFDDSNIAAMYRKIHRRDYRFPSWISKQAKSIIYQMLDPNPVTRMSIETVMKTNWFKKSLETSEFHRNVFDSEVEMKSSVNSITAFDLISLSSGLDLSGLFEAKKKKERRFTAKVSGVEVEEKAKMIGEKLGYVVKKKMMKKEGEVKVVGLGRGRTVIVVEAVELTVDVVVVEVKVVEGEEDDSRWSDLITELEDIVLSWHNDIM | binds |  |
| AD⋅CIPK8 (pGAD⋅CIPK8), Arabidopsis CIPK8 in the Gal4 activation domain vector (protein, UniProt Q9STV4 1-445) MVVRKVGKYELGRTIGEGTFAKVKFAQNTETGESVAMKIVDRSTIIKRKMVDQIKREISIMKLVRHPCVVRLYEVLASRTKIYIILEYITGGELFDKIVRNGRLSESEARKYFHQLIDGVDYCHSKGVYHRDLKPENLLLDSQGNLKISDFGLSALPEQGVTILKTTCGTPNYVAPEVLSHKGYNGAVADIWSCGVILYVLMAGYLPFDEMDLPTLYSKIDKAEFSCPSYFALGAKSLINRILDPNPETRITIAEIRKDEWFLKDYTPVQLIDYEHVNLDDVYAAFDDPEEQTYAQDGTRDTGPLTLNAFDLIILSQGLNLATLFDRGKDSMKHQTRFISHKPANVVLSSMEVVSQSMGFKTHIRNYKMRVEGLSANKTSHFSVILEVFKVAPSILMVDIQNAAGDAEEYLKFYKTFCSKLDDIIWKPPDASMRNRVTKAKSKRR | binds |  |
| AD⋅CIPK11 (pGAD⋅CIPK11), Arabidopsis CIPK11 in the Gal4 activation domain vector (protein, UniProt O22932 1-435) MPEIEIAAGSGDNNDALFGKYELGKLLGCGAFAKVFHARDRRTGQSVAVKILNKKKLLTNPALANNIKREISIMRRLSHPNIVKLHEVMATKSKIFFAMEFVKGGELFNKISKHGRLSEDLSRRYFQQLISAVGYCHARGVYHRDLKPENLLIDENGNLKVSDFGLSALTDQIRPDGLLHTLCGTPAYVAPEILSKKGYEGAKVDVWSCGIVLFVLVAGYLPFNDPNVMNMYKKIYKGEYRFPRWMSPDLKRFVSRLLDINPETRITIDEILKDPWFVRGGFKQIKFHDDEIEDQKVESSLEAVKSLNAFDLISYSSGLDLSGLFAGCSNSSGESERFLSEKSPEMLAEEVEGFAREENLRMKKKKEEEYGFEMEGQNGKFGIGICISRLNDLLVVVEARRRGGDGDCYKEMWNGKLRVQLIRVCDQTSSTNAAI | binds |  |
| AD⋅CIPK5 (pGAD⋅CIPK5), Arabidopsis CIPK5 in the Gal4 activation domain vector (protein, UniProt Q9LEU7 1-445) MEEERRVLFGKYEMGRLLGKGTFAKVYYGKEIIGGECVAIKVINKDQVMKRPGMMEQIKREISIMKLVRHPNIVELKEVMATKTKIFFVMEFVKGGELFCKISKGKLHEDAARRYFQQLISAVDYCHSRGVSHRDLKPENLLLDENGDLKISDFGLSALPEQILQDGLLHTQCGTPAYVAPEVLKKKGYDGAKADIWSCGVVLYVLLAGCLPFQDENLMNMYRKIFRADFEFPPWFSPEARRLISKLLVVDPDRRISIPAIMRTPWLRKNFTPPLAFKIDEPICSQSSKNNEEEEEDGDCENQTEPISPKFFNAFEFISSMSSGFDLSSLFESKRKVQSVFTSRSSATEVMEKIETVTKEMNMKVKRTKDFKVKMEGKTEGRKGRLSMTAEVFEVAPEISVVEFCKSAGDTLEYDRLYEEEVRPALNDIVWSWHGDNNNTSSEDC | binds |  |
